## Primary screen of a compound library

By UniProt entry, the sequences of proteins in these tests, tags left out.
UniProt P9WNZ1, whole entry: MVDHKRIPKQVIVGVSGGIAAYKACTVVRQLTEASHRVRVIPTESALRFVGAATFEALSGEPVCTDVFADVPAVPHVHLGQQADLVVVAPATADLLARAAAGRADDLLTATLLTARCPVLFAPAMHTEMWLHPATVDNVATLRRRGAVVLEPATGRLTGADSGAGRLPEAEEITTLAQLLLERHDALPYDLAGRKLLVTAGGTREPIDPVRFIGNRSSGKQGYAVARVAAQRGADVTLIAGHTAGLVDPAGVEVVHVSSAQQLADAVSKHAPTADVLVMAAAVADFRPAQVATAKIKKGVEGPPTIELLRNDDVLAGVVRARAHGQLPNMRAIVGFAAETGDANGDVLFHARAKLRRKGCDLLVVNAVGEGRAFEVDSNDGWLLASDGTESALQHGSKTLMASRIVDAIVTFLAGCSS

From ChEMBL document CHEMBL3988442, “University of Dundee, Small-Polar-MMV Screening Library” (2021).

Toxoplasma: 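Assay of Toxoplasma gondii numbers, read through their beta-galactosidase reporter with a colour substrate. Tested at 10 µM. Higher reads as fewer parasites (inferred from which compounds were picked for retests). Of about 67,000 compounds tested this way, about 260 (0.38%) reached 50% or more in at least one test.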
CoaBC: 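Coenzyme A biosynthesis protein CoaBC, Mycobacterium tuberculosis (UniProt P9WNZ1). Enzyme assay of CoaBC with a phosphate dye (Biomol Green) read at 650 nm. Concentration: 30 µM. Higher reads as stronger inhibition, judged from the few compounds that gave an IC50. Most strong results did not repeat in a second test. Of about 67,000 compounds tested this way, about 40 (0.06%) reached 50% or more in at least one test.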

The filed quantity is “Percent Effect” (%). The controls that fix the scale are not given in the record; negative values are as filed. The compounds are a random part of those screened. A dash means the value is not listed here; it may have been measured.

| # | compound | Toxoplasma | CoaBC |
|---|---|---|---|
| 1 | `C=C(C)CNc1ccc(C(=O)N(CC)Cc2nccn2C)cn1` | 2.344 | 2.36 |
| 2 | `CCc1ccsc1C(=O)NCCn1nc2ccccn2c1=O` | 9.585 | 8.095 |
| 3 | `CCN1CCN(C)C2(CCN(Cc3cccc(C)n3)CC2)C1=O.O=C(O)C(F)(F)F.O=C(O)C(F)(F)F` | -9.696 | - |
| 4 | `O=C(Nc1cccnc1)NC1CCN(c2ccccc2OC(F)F)C1` (stereo not given) | -3.215 | 0.3681 |
| 5 | `O=C(O)C(F)(F)F.O=C1CC2(CCCCN2C(=O)c2ccco2)CN1c1cccnc1` (stereo not given) | -0.1232 | - |
| 6 | `Cc1nc(COc2ccc(CNCCn3cccn3)cc2)cs1` | -3.14 | -14.46 |
| 7 | `CC1(C)Cc2ccc(C(=O)NC3CCOCC3)c(O)c2O1` | -2.296 | 4.962 |
| 8 | `CS(=O)(=O)c1ccc2c(c1)N(C(=O)c1cccc(F)c1)CCC2` | 4.32 | -11.57 |
| 9 | `Cc1ccc(CNS(=O)(=O)CC2=NC(=O)n3cccc3C2=O)cc1` | 3.467 | 3.634 |
| 10 | `CCOCC1CCCN(C(=O)NCc2ccc(-c3ccn[nH]3)cc2)C1` (stereo not given) | 5.263 | 3.448 |
| 11 | `[H][C@@]12CCC(=O)N(c3ccccc3)[C@]1([H])CCN2C(=O)c1ccoc1` | 5.602 | - |
| 12 | `Cc1ocnc1C(=O)N1CC[C@@]2(O)CCN(C(=O)N3CCCC3)C[C@H]2C1` | - | 0.8805 |
| 13 | `CNC(=O)Cc1noc(Cc2ccc3c(c2)CCCC3)n1` | 0.2798 | 5.433 |
| 14 | `COc1ccccc1CCC(=O)N1CCCC(OCc2cccnc2)C1` (stereo not given) | 16.08 | 2.792 |
| 15 | `COCCN1CCC(NC(=O)C/C=C/c2ccc(C(C)C)cc2)CC1` | -2.901 | 1.84 |
| 16 | `O=C(NCc1cccnc1)[C@@H]1C[C@H]2[C@H](CCN2c2ncccn2)O1` | - | -2.843 |
| 17 | `COC(=O)CC1CCCCN1CC(=O)Nc1cc(F)ccc1F` (stereo not given) | -1.613 | 4.207 |
| 18 | `CC(C)Cc1cc(CNC(=O)c2ccccc2C2CCNC2)no1` (stereo not given) | -41.45 | 3.163 |
| 19 | `O=C(NC1(c2nc(C3CC3)no2)CCCCC1)c1ccncc1` | -12.1 | 2.133 |
| 20 | `CCc1ncnc2c1CCN(c1ncc(F)cn1)CC2` | -8.217 | 1.25 |
| 21 | `O=C(c1cc(F)ccc1O)N1CCN(C(=O)C2CCC2)CC1` | -11.63 | -1.141 |
| 22 | `CN(C)C(C)(C)CNC(=O)C(C)(C)c1ccccc1F` | -2.094 | -1.266 |
| 23 | `Cc1nc(CN2CCC(CNC(=O)Nc3ccccc3)CC2)oc1C` | -4.696 | 6.867 |
| 24 | `Cc1nnc(NC(=O)NCc2cccnc2N(C)C)s1` | 1.588 | 4.819 |
| 25 | `CCc1c(C)[nH]c(C(C)(N)CC)nc1=O` (stereo not given) | - | -3.666 |
| 26 | `Cn1cc(C(=O)N2CCCC(n3cncn3)C2)ccc1=O` (stereo not given) | 0.579 | 7.127 |
| 27 | `CC1CCN(C(=O)c2ccc(N(C)Cc3cnn(C)c3)nc2)CC1` | 11.59 | 1.816 |
| 28 | `CC(C)=CCN1C[C@H]2CC[C@@H]1CN(C(=O)c1ccc(S(N)(=O)=O)cc1)C2` | - | 0.8696 |
| 29 | `CCN1CCO[C@@H]2CN(C(=O)c3ccc4[nH]ccc4c3)CC[C@@H]2C1` | - | 4.68 |
| 30 | `O=C(CN1CCN(CC(O)C2CC2)CC1)NCc1ccccc1Cl` (stereo not given) | - | 2.503 |
| 31 | `Cc1ccc(F)cc1NC(=O)C1CCCN1C(=O)C(C)C` (stereo not given) | -6.078 | 0.1972 |
| 32 | `CC(=O)N[C@@H]1CN(c2nc(C(N)=O)cs2)C[C@H]1c1ccc(C)o1` | -18.42 | 1.985 |
| 33 | `Cn1ccc(CN2CCCC23CCNCC3)n1` | -11.93 | -46.67 |
| 34 | `O=C(C1CCOC1)N1CCC2(CC1)CN(Cc1nccs1)CCO2` (stereo not given) | -11.35 | 1.826 |
| 35 | `COCC1CCN(c2nc(C(C)(C)C)nc3c2cnn3C)C1` (stereo not given) | 7.214 | 0 |
| 36 | `CC(Nc1ccc(C#N)cc1F)c1cccc(S(N)(=O)=O)c1` (stereo not given) | 7.907 | 4.959 |
| 37 | `CCC(=O)NC1CCCN(C(=O)c2ccc(OCC3CC3)nc2)C1` (stereo not given) | -1.857 | -2.558 |
| 38 | `CN(Cc1ccsc1)C(=O)CN1CCCCC1Cn1cccn1` (stereo not given) | 4.285 | 16.2 |
| 39 | `O=C(CCc1ccccc1)N[C@H]1CC[C@@]2(CCC(=O)N2)CC1` | -9.43 | 8.108 |
| 40 | `O=C(O)C(F)(F)F.[H][C@@]12CCN(c3ncc(F)cn3)[C@]1([H])CC[C@H](C(=O)NC1CCCC1)O2` | 4.31 | - |
| 41 | `CCOC(=O)CSc1nnc([C@@H](N)C(C)CC)o1` (stereo not given in full) | - | 2.532 |
| 42 | `CN(C)CCNCCC(Cc1ccccc1)C1CCOC(C)(C)C1` (stereo not given) | - | 0 |
| 43 | `COc1ccc(CC2(CO)CCN(c3cc(N)ncn3)CC2)cc1` | 13.94 | 9.452 |
| 44 | `CC(C)OCc1ncn2c1CN(Cc1ccoc1)CCC2` | - | 0 |
| 45 | `CN1CCN(Cc2ccc(F)cc2)Cc2cccnc21` | -14.65 | -7.099 |
| 46 | `Cc1cc(NC2CC3(CCN(Cc4ncccc4F)C3)C2)ncn1` (stereo not given) | 2.052 | -1.37 |
| 47 | `CC(C)(C)c1nc(CNC(=O)N2CCc3ccccc3C2CO)no1` (stereo not given) | -2.273 | 7.782 |
| 48 | `CCNC(=O)[C@@H]1C[C@H](N)CN1Cc1ccc(-c2ccccc2C#N)o1` | 2.462 | 2.616 |
| 49 | `CS(=O)(=O)c1ccc(CC(=O)N2CCN3CCNC(=O)C3C2)cc1` (stereo not given) | -3.506 | -2.334 |
| 50 | `COc1ccc(C)cc1-n1c(COC(C)C)n[nH]c1=O` | 1.034 | 11.54 |
| 51 | `Cc1cc(CNS(C)(=O)=O)ccc1N(C)C` | -13.41 | 7.767 |
| 52 | `CN1CCN(c2ncnc3c2CCN(c2ncc(F)cn2)CC3)CC1.O=C(O)C(F)(F)F` | -45.99 | - |
| 53 | `O=C(c1ncn2c(C3CCN(CC4CC4)CC3)ccnc12)N1CCCC1` | -0.7979 | - |
| 54 | `Cc1ccoc1C(=O)N1CCCC(c2cc(C(F)(F)F)[nH]n2)C1` (stereo not given) | 11.01 | 1.786 |
| 55 | `COC[C@H]1CCC[C@]12CN(S(=O)(=O)c1cccs1)CCO2` | -0.7979 | - |
| 56 | `CCC(NC(=O)c1ccco1)c1nc(C(F)(F)F)cs1` (stereo not given) | 0.8207 | 2.114 |
| 57 | `Cc1ccccc1C(C)NC(=O)Cc1c(C)nc2cc(=O)[nH]n2c1C` (stereo not given) | -13.36 | 2.273 |
| 58 | `CO[C@@H]1CC[C@H]2[C@H]1OCCN2S(=O)(=O)c1cn(C)cn1` | - | 3.462 |

Repeated from the top, 7 entries:

* C=C(C)CNc1ccc(C(=O)N(CC)Cc2nccn2C)cn1 | Toxoplasma: 2.344%; CoaBC: 2.36%
* CCc1ccsc1C(=O)NCCn1nc2ccccn2c1=O | Toxoplasma: 9.585%; CoaBC: 8.095%
* CCN1CCN(C)C2(CCN(Cc3cccc(C)n3)CC2)C1=O.O=C(O)C(F)(F)F.O=C(O)C(F)(F)F | Toxoplasma: -9.696%
* O=C(Nc1cccnc1)NC1CCN(c2ccccc2OC(F)F)C1 (stereo not given) | Toxoplasma: -3.215%; CoaBC: 0.3681%
* O=C(O)C(F)(F)F.O=C1CC2(CCCCN2C(=O)c2ccco2)CN1c1cccnc1 (stereo not given) | Toxoplasma: -0.1232%
* Cc1nc(COc2ccc(CNCCn3cccn3)cc2)cs1 | Toxoplasma: -3.14%; CoaBC: -14.46%
* CC1(C)Cc2ccc(C(=O)NC3CCOCC3)c(O)c2O1 | Toxoplasma: -2.296%; CoaBC: 4.962%